According to article PMC12578386:
Results are given in words; binding and its absence hold for the method and conditions named. In cells and extracts the contact can be indirect. Some binding calls cover weakened binding; strength is not graded here.

Chains of the proteins cited; added tags and fusions are not shown.
UniProt P17182: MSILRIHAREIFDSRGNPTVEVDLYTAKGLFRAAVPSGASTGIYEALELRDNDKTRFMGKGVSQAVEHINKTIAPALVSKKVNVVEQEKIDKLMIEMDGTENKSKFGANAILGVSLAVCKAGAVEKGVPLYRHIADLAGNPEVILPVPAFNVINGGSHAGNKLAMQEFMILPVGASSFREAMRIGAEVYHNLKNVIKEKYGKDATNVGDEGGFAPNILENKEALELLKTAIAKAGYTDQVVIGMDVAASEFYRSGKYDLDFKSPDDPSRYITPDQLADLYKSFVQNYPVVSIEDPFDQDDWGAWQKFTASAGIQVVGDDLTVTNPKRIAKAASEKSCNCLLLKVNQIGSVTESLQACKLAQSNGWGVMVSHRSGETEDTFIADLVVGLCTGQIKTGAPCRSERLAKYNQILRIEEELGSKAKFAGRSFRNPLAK
UniProt Q99JI6: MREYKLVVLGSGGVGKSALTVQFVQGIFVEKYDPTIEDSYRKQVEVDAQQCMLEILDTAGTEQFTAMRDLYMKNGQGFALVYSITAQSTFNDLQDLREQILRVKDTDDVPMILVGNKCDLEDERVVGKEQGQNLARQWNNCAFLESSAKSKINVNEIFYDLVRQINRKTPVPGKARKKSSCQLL

T1: interferon-induced transmembrane protein 2 (IFITM2), endogenous (mouse (endogenous in naive CD4+ T cells)) (UniProt Q99J93)
T1 sequence: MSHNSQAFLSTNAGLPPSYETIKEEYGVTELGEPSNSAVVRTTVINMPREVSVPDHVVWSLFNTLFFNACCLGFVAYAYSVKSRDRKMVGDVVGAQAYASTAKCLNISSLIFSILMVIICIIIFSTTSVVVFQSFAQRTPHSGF

B1: interferon-induced transmembrane protein 2 (IFITM2), endogenous (protein, UniProt Q99J93 1-144)
chain: MSHNSQAFLSTNAGLPPSYETIKEEYGVTELGEPSNSAVVRTTVINMPREVSVPDHVVWSLFNTLFFNACCLGFVAYAYSVKSRDRKMVGDVVGAQAYASTAKCLNISSLIFSILMVIICIIIFSTTSVVVFQSFAQRTPHSGF

What was measured:
[1] = target: T1, interferon-induced transmembrane protein 2 (IFITM2), endogenous (mouse (endogenous in naive CD4+ T cells)); assay: co-IP; naive CD4+ T cells transfected with control siRNA or Ifitm2 siRNA, with or without NDMC (500 ng/mL), under Treg differentiation conditions; IP of IFITM2, blot for RAP1B
[2] = target: enolase 1 (ENO1), endogenous, on the surface of CD4+ T cells (mouse (endogenous in naive CD4+ T cells)) (UniProt P17182); assay: co-IP; IP of IFITM2 and ENO1 (Supplemental Figure 8G); cells and conditions not shown

Molecule | binding [1] | binding [2]
RAS-associated protein 1B (RAP1B), endogenous (from UniProt Q99JI6 1-184) | binds | –
B1 | – | binds
